# Measured values published in the supplement of paper PMC11659162.
# ± gives the standard deviation of the averaged measurements. The list shows a part of the results. This is a noisy data set.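 The cells are a human neuroglioma line carrying a green fluorescent autophagy reporter.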
# Test system: H4 GFP-LC3
# Assay: ACBP immunofluorescence intensity (scaled to control) (AU (scaled)); higher = more intracellular ACBP/DBI
# Conditions: 6 h
row,Structure (SMILES),ACBP immunofluorescence intensity
1,NC/C=C/C(=O)O (5 µM),0.952
2,CN(C)CCCSc1ccccc1NC(=O)/C=C/c1ccccc1 (5 µM),0.956
3,CC12CC3CC(C)(C1)CC(N)(C3)C2 (5 µM),0.385
4,Cn1c(=O)[nH]c2ncn(C)c2c1=O (5 µM),0.955
5,N[C@H](CC(=O)O)C(=O)O (5 µM),0.941
6,NC(=O)CC(NC(=O)Cc1ccc(O)cc1O)C(=O)O (stereo unspecified) (5 µM),0.921
7,COc1cc2c3cc1Oc1cc(ccc1O)C[C@@H]1c4c(cc(OC)c(O)c4Oc4ccc(cc4)C[C@@H]3N(C)CC2)CC[N+]1(C)C (5 µM),0.983
8,CCNC(=O)N1CCN(CCCC(c2ccc(F)cc2)c2ccc(F)cc2)CC1 (5 µM),0.999
9,NC1(C(=O)O)CCCC1 (5 µM),0.948
10,CC(C)NC[C@H](O)COc1cccc2ccccc12 (5 µM),0.918
11,CN1CCc2ccccc2Cc2[nH]c3ccccc3c2CC1 (5 µM),0.899
12,COc1cc(N)c(Cl)cc1C(=O)OCCCN1CCCCC1 (5 µM),0.98
13,CC(C)(C)NC[C@H](O)COc1nsnc1N1CCOCC1 (5 µM),0.816
14,CN1CCC(=C2c3ccccc3C=Cc3ccccc32)CC1 (5 µM),0.999
15,Oc1cc2c(cc1O)C(c1ccccc1)CNCC2 (stereo unspecified) (5 µM),0.785
16,Cn1cnc2c(ncn2[C@@H]2O[C@H](CO)[C@@H](O)[C@H]2O)c1=N (5 µM),0.997
17,CN[C@H](CC(=O)O)C(=O)O (5 µM),0.991
18,N=C(CC(O)COc1ccccc1-c1ccccc1)N1CCCCC1 (stereo unspecified) (5 µM),0.908
19,Oc1ccc(C2CNCCc3c2cc(O)c(O)c3Cl)cc1 (stereo unspecified) (5 µM),0.484

# Same assay, conditions: 24 h
row,Structure (SMILES),ACBP immunofluorescence intensity
1,N[C@H](CO)C(=O)O (5 µM),0.411
2,Fc1ccc([C@@H]2CCNC[C@H]2COc2ccc3c(c2)OCO3)cc1 (5 µM),0.797
3,CCC1(c2ccccc2)C(=O)NCNC1=O (5 µM),0.507
4,N[C@@H]1CCN(O)C1=O (5 µM),0.507
5,C[N+](C)(C)CC[N+]1(C)Cc2c(Cl)c(Cl)c(Cl)c(Cl)c2C1 (5 µM),0.544
6,O=C1CC2(CCCC2)CC(=O)N1CCCCNCC1COc2ccccc2O1 (stereo unspecified) (5 µM),0.661
7,CC(C)(C)[C@@]1(O)CCN2C[C@@H]3c4ccccc4CCc4cccc(c43)[C@H]2C1 (5 µM),0.587
8,CC(=O)NCC(=O)N[C@H](CCC(=O)O)C(=O)O (5 µM),0.797
9,CN/C(=N\CCSCc1nc[nH]c1C)NC#N (5 µM),0.683
10,CCN1CCC[C@H]1CNC(=O)c1c(OC)ccc(Br)c1OC (5 µM),0.729
11,O=C(Nc1ccccc1)C12CC1C(=NO)c1ccccc1O2 (stereo unspecified) (5 µM),0.729
12,N[C@@H](CSS(=O)(=O)O)C(=O)O (5 µM),0.891
13,CC(C)NC[C@@H](O)COc1cccc2ccccc12 (5 µM),0.361 ± 0.047
14,CNCCCC12CCC(c3ccccc31)c1ccccc12 (5 µM),0.767
15,Nc1ncnc2c1ncn2[C@@H]1O[C@H](COP(=O)(O)OP(=O)(O)O)[C@@H](O)[C@H]1O (5 µM),0.669
16,COc1ccc2[nH]cc(CCNC(C)=O)c2c1 (5 µM),0.68
17,CN(C)CCCN1c2ccccc2CCc2ccc(Cl)cc21 (5 µM),0.482
18,O=C(NCCNN1CCCCC1)c1ccc(I)cc1 (5 µM),0.803
19,NC/C=C/C(=O)O (5 µM),0.744

row,Structure (SMILES),ACBP immunofluorescence intensity
1,CN(C)CCCSc1ccccc1NC(=O)/C=C/c1ccccc1 (5 µM),0.733
2,CC12CC3CC(C)(C1)CC(N)(C3)C2 (5 µM),0.532
3,Cn1c(=O)[nH]c2ncn(C)c2c1=O (5 µM),0.738
4,N[C@H](CC(=O)O)C(=O)O (5 µM),0.77
5,NC(=O)CC(NC(=O)Cc1ccc(O)cc1O)C(=O)O (stereo unspecified) (5 µM),0.448
6,COc1cc2c3cc1Oc1cc(ccc1O)C[C@@H]1c4c(cc(OC)c(O)c4Oc4ccc(cc4)C[C@@H]3N(C)CC2)CC[N+]1(C)C (5 µM),0.675
7,CCNC(=O)N1CCN(CCCC(c2ccc(F)cc2)c2ccc(F)cc2)CC1 (5 µM),0.831
8,NC1(C(=O)O)CCCC1 (5 µM),0.407
9,CC(C)NC[C@H](O)COc1cccc2ccccc12 (5 µM),0.389
10,CN1CCc2ccccc2Cc2[nH]c3ccccc3c2CC1 (5 µM),0.753
11,COc1cc(N)c(Cl)cc1C(=O)OCCCN1CCCCC1 (5 µM),0.53
12,CC(C)(C)NC[C@H](O)COc1nsnc1N1CCOCC1 (5 µM),0.497
13,CN1CCC(=C2c3ccccc3C=Cc3ccccc32)CC1 (5 µM),0.94
14,Oc1cc2c(cc1O)C(c1ccccc1)CNCC2 (stereo unspecified) (5 µM),0.472
15,Cn1cnc2c(ncn2[C@@H]2O[C@H](CO)[C@@H](O)[C@H]2O)c1=N (5 µM),0.612
16,CN[C@H](CC(=O)O)C(=O)O (5 µM),0.786
17,N=C(CC(O)COc1ccccc1-c1ccccc1)N1CCCCC1 (stereo unspecified) (5 µM),0.779
18,Oc1ccc(C2CNCCc3c2cc(O)c(O)c3Cl)cc1 (stereo unspecified) (5 µM),0.554
